PubChem BioAssay AID504793 | Drosophila RNAi Screening Center, 2011

Assay: 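Whole-genome screen for parts of the DNA damage checkpoint at G2/M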 (primary screen)
Cell system: Drosophila S2R+ cells
Reagent: long dsRNA against Drosophila genes, about 0.25 µg dsRNA per well
Time to read-out: 4 days of dsRNA, then 4 hours of drug before read-out
Treatment: doxorubicin 0.5 µM for 4 hours to cause double-strand breaks, in cells also given a low, harmless dose of dsRNA against nbs to sensitise the assay
Measurement: 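Mitotic index as the number of phospho-histone H3-positive cells in each well following doxorubicin, given as raw counts without normalisation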
Reading the numbers: mitotic cells: higher = more cells in mitosis, weaker G2 arrest
Active means: 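a call needs confirmation in secondary tests, with other dsRNAs and a check of mitotic timing without damage, not just a high primary count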
Calls: active = confirmed in follow-up tests; inactive = not confirmed
The screen tested about 23,000 reagents; below is a random part of those that have a named target and a result. Over the whole deposit, 62 (0.27%) were called active. 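Calls come from follow-up tests whose scores are not deposited, so confirmed genes may have low counts here; counts are not normalised per plate.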 Raw values are not corrected between plates. Entries without a mark were called inactive. No sequences are given here.

gene	dsRNA	mitotic cells, replicate 1
JTBR	DRSC08667	4
grnd	DRSC02020	1
Roc2	DRSC07313	7
Roc2	DRSC27174	10
CG32021 (retired record)	DRSC17206	17
CG32021 (retired record)	DRSC23926	8
Mtk	DRSC07475	7
Mtk	DRSC29753	10
CG17985	DRSC06702	6
Art3	DRSC16065	5
sut4	DRSC07703	5
sut4	DRSC24885	8
CCAP	DRSC15674	11
unc-4	DRSC20381	9
unc-4	DRSC22074	10
unc-4	DRSC25459	2
CG34450	DRSC17822	9
CG34450	DRSC25085	1
CG15922	DRSC15128	5
Pnn	DRSC16415	4
Lkr	DRSC09754	5
spn-D	DRSC22641	6
CG8519	DRSC10985	6
CG8519	DRSC26203	8
MAPk-Ak2	DRSC18678	16
MAPk-Ak2	DRSC29642	6
Hou	DRSC20001	6
Hou	DRSC22347	9
Hou	DRSC26803	7
CG11374	DRSC00306	4
TwdlC	DRSC14749	10
TwdlC	DRSC25255	5
CG5612	DRSC15844	8
eIF2gamma	DRSC13081	8
eIF2gamma	DRSC16873	1
eIF2gamma	DRSC27837	2
CG9588	DRSC16504	2
flfl	DRSC16474	16
SA1	DRSC03424	8
SA1	DRSC28222	10
CG3734	DRSC15509	10
CG3734	DRSC25892	5
Nop10	DRSC28427	6
Ance-2	DRSC02539	6
CG9986	DRSC16586	4
CG9986	DRSC29323	6
rost	DRSC03603	5
rost	DRSC28296	7
Met	DRSC20284	14
Met	DRSC27106	4
CG1545	DRSC21532	9
qkr54B	DRSC07670	3
qkr54B	DRSC24863	10
Grip75	DRSC03337	12
CG9302	DRSC03191	6

The list goes on (13 carried over from the part before).
gene	dsRNA	mitotic cells, replicate 1
Nop10	DRSC28427	6
Ance-2	DRSC02539	6
CG9986	DRSC16586	4
CG9986	DRSC29323	6
rost	DRSC03603	5
rost	DRSC28296	7
Met	DRSC20284	14
Met	DRSC27106	4
CG1545	DRSC21532	9
qkr54B	DRSC07670	3
qkr54B	DRSC24863	10
Grip75	DRSC03337	12
CG9302	DRSC03191	6
Pat1	DRSC17750	2
Pat1	DRSC27265	6
Rab3	DRSC07523	11
CG31751	DRSC02464	6
CG31751	DRSC02465	6
Ide	DRSC11867	5
CG31820	DRSC21318	15
CG31820	DRSC29683	6
CG32115	DRSC22607	6
LysE	DRSC08675	6
CG9284 (retired record)	DRSC03899	6
CG9284 (retired record)	DRSC04536	7
RecQ4	DRSC11265	11
RecQ4	DRSC27616	40 (active)
Nab2	DRSC14158	12
Nab2	DRSC27135	4
CG6996	DRSC10758	4
CG31781 (retired record)	DRSC02431	4
CG31781 (retired record)	DRSC02432	3
Atg1	DRSC09809	9
Atg1	DRSC09810	4
c11.1	DRSC18749	14
Or45a	DRSC07487	7
Or45a	DRSC27527	5
CG42500	DRSC14822	6
CG14787	DRSC18606	11
CG44838	DRSC10371	6
CG44838	DRSC28801	4
CG13912	DRSC08381	1
CG12782	DRSC04127	8
CG7115	DRSC02000	6
CG7115	DRSC29878	9
Ccdc58	DRSC10218	10
CG14230	DRSC19586	7
CG14230	DRSC29188	2
CG10702	DRSC02097	4
myo	DRSC17174	8
Cda9	DRSC06593	10
ng3	DRSC18804	21
ng3	DRSC25323	14
Ak6	DRSC07274	5
CG11777	DRSC06081	3
CG11777	DRSC26750	9
CG5391	DRSC15790	12
Obp69a	DRSC11247	11
Obp69a	DRSC27681	4
CG5498	DRSC11608	9
eya	DRSC03510	6
TwdlG	DRSC12229	1
TwdlG	DRSC27678	8
Sh	DRSC19214	28
Sh	DRSC19785	5
Sh	DRSC20055	15
Sh	DRSC25790	7
Sh	DRSC25811	4
